Measured values taken from US7393939B2, “Placental organic anion transporter and gene thereof” (Japan Science and Technology Corporation, priority 1999, dated 2008).

Biological target: T1, OAT4 (Homo sapiens, UniProt Q9NSA0)
T1 construct: cRNA (an RNA complementary to cDNA) was prepared from a plasmid containing this cDNA; expressed in transfected cells; host or cells: Xenopus laevis oocytes injected with OAT4 cRNA (transcribed in vitro with T7 RNA polymerase from plasmid pZL holding the hOAT4 cDNA)
T1 sequence (Q9NSA0 1-550): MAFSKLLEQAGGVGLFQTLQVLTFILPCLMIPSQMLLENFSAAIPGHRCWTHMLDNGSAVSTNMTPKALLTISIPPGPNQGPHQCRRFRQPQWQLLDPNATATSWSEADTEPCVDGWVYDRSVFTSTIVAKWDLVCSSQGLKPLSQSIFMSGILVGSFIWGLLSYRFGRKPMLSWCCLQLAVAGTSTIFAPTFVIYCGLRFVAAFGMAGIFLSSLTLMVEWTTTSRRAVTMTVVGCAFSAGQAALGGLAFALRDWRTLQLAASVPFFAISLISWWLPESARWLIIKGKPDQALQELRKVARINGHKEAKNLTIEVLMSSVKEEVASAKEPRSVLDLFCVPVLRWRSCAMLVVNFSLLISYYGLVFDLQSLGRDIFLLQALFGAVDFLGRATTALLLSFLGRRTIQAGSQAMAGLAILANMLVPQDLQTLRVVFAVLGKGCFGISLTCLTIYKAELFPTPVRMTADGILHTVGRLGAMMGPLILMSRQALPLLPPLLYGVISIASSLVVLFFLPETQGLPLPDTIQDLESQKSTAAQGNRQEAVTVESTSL
Test: Inhibition experiment: ^3H-estrone sulfate uptake in OAT4 cRNA-injected oocytes with various compounds
Type: cell-based
Conditions: 50 nM ^3H-estrone sulfate; 500 μM unlabeled compound; FIG. 4
Method: Further, in order to investigate the substrate selectivity of OAT4 of the present invention, various ionic substances were added to an incorporation experimental system of ^3H-estrone sulfate and the influence thereby was tested (Inhibition Experiment).
In order to further investigate the substrate selectivity of OAT4, various anionic substances were added to a system in an uptake experiment system of ^3H-estrone sulfate in oocytes into which OAT4 cRNA was injected and the influence was investigated (inhibition experiment). An uptake experiment of ^3H-estrone sulfate was carried out according to the above-mentioned method using oocytes into which OAT4 cRNA was injected. Uptake of 50 nM ^3H-estrone sulfate was measured in the presence and absence of 500 μM of various compounds (unlabeled).

inhibition of transport of ^3H-estrone sulfate by OAT4: significantly inhibited
Structure (SMILES): NS(=O)(=O)c1cc(C(=O)O)c(NCc2ccco2)cc1Cl [furosemide]
